In patent US12146010B2, “Amine co-initiator mixture” (Arkema UK Limited, priority 2019, dated 2024):

Assay: Migration of amine co-initiators from cured films into simulant solvents (HPLC)
Conditions: 60° C. for 10 days, average of three runs, 24 μm cured film, 5% w/w amine
Text: The following example illustrates the potential to use a mixture of amine co-initiators as defined by this invention as a low-migration co-initiator system.
Formulations containing 90% w/w Ebecryl 40 (Allnex), 4% w/w SpeedCure BP (Lambson Limited), 1% w/w SpeedCure 2-ITX (Lambson Limited) and 5% w/w of either SpeedCure EDB, SpeedCure 7040 (Lambson Limited) or the amine co-initiator mixture AM1 were cured onto paper strips in 24 μm films under a Hg lamp until fully cured (as determined by the ‘thumb-twist’ test, see Example 3). The cured paper strips were each cut to a size of approx. 100 cm 2 and the mass of cured resin adhered to each piece of paper was recorded. The cured paper strips were each submerged into 15 mL of solvent in sealed pressure vessels and were held at 60° C. in an oven for 10 days; the solvents used were either acetonitrile, 50% v/v ethanol in water, or 3% w/v acetic acid in water. All of the vessels were subsequently allowed to cool to 20-25° C. and the paper strips were removed from the simulant solvents. Samples of each solvent were filtered and injected onto HPLC, and all components dissolved in the solvents were eluted using appropriate HPLC methods. Comparison of peak areas to previously prepared calibration curves allowed for the masses of the amine co-initiators present in the injected volume of solvent to be calculated, and therefore also the total amount of amine dissolved in the 15 mL of simulant solvent for each sample. Since SpeedCure 7040 and mixture AM1 contain multiple components, the peak areas of all components in those mixtures were added together. The total amount of amine which had migrated from the cured films into the simulant solvents is expressed in Tables 4-6 and FIGS. 1-3 as a percentage of the total amount amine present on each cured strip (taken to be 5% of the total amount of cured resin on the strip). […] SpeedCure 2-ITX and SpeedCure BP were also seen to migrate from the cured films into the surrounding solvents in every case (along with other minor impurities), but these were not quantified.

CCOC(=O)c1ccc(N(C)C)cc1 [SpeedCure EDB, ethyl 4-(dimethylamino)benzoate, reference compound]
Weight % of Amine Migrated (into 3% w/v acetic acid in de-ionised water): 3.5 ^ Weight % | Weight % of Amine Migrated (into 50% v/v ethanol in de-ionised water): 42.6 Weight % | Weight % of Amine Migrated (into acetonitrile): 47.5 Weight %
